One substance from patent US11066439 (dated 2021) can be followed below.

Where only a bound is given, the exact number is not on record here.

The nature of the data set: general procedure: Fmoc solid-phase peptide synthesis; Wang resin; DIC / oxymapure / DIPEA with inorganic salt (MgCl2). As to conditions: whole synthesis.

In the case of “H-His^7-Ala^8-Glu^9-Gly^10-Thr^11-Phe^12-Thr^13-Ser^14-Asp^15-Val^16-Ser^17-Ser^18-Tyr^19-Leu^20-Glu^21-Gly^22-Glu^23-Ala^24-Ala^25-Lys(γ-Glu-palmitoyl)^26-Glu^27-Phe^28-Ile^29-Ala^30-Trp^31-Leu^32-Val^33-Arg^34-Gly^35-Arg^36-Gly^37-OH”, the “crude purity (method not given)” value runs as follows: (run 1) 51.3%; (run 2) 51.16%; (run 3) 51.7%; (run 4) 34.4%; (run 5) 39.1%; (run 6) greater than 60.0%. Besides, the crude yield is, setting by setting: (run 1) 18.25%; (run 2) 17.84%; (run 3) 21.23%; (run 4) 6.79%; (run 5) 8.62%; (run 6) 27.0%.
